Substitutions are numbered along the chain they refer to. Results are given in words; binding and its absence hold for the method and conditions named. A result given as binding can be weak or reduced; the word gives no strength.
B1: JB24H2L1 (antibody, human IgG1, kappa, V domains shown)
VH: QVQLVQSGAEVKKPGASVKMSCKASGYTFTDYNMHWVRQSPGKSLEWIGYIKPHNAGTTYNPKFEGRATLTVDTSASTAYMELSSLRSEDTAVYYCVRSDFLYWYFDVWGQGTTVTVSS
VL: DIQMTQSPSSLSASVGDRVTITCTASSSVSSSYLHWYQQKPGKAPKLLIYSTSNLASGVPSRFSGSGSGTDFTLTISSLQPEDFATYYCHQYHRSPLTFGAGTKLEIKR
B2: JB24H3L2 (antibody, human IgG1, kappa, V domains shown)
VH: B1 VH with R38K, P41H, S84R
VL: B1 VL with K43S, L48W, F72Y
B3: JB24H3L3 (antibody, human IgG1, kappa, V domains shown)
VH: B1 VH with R38K, P41H, S84R
VL: B1 VL with Q3V, K43S, A44S, L48W, S61G, F72Y
B4: JB24Chi (antibody, human IgG1, kappa, V domains shown)
VH: QVQLQQSGLELVKPGASVKMSCKASGYTFTDYNMHWVKQSHGKSLEWIGYIKPHNGGTTYNPKFEGKATLTVNKSSSTAYMELRSLTSEDSAVYYCVRCDFLYWYFDVWGTGTTVTVSS
VL: DIVMTQSPAIMSASLGERVTMTCTASSSVSSSYLHWYQQKPGSSPKLWIYSTSNLASGVPGRFSGSGSGTSYSLTISSMEAEDAATYYCHQYHRSPLTFGAGTKLEMKR
B5: JB94H2L1 (antibody, human IgG1, kappa, V domains shown)
VH: QVQLVQSGAEVKKPGASVKVSCKASGYTFTSYWMHWVRQRPGQGLEWMGYINPSSGYTKSNQKFKDRVTLTADTSTSTAYMELSSLRSEDTAVYYCGRWLLSAWFAYWGQGTLVTVSS
VL: DIQMTQSPSSLSASVGDRVTITCKASQDINTYLSWFQQKPGKAPKSLIYRSNILVDGVPSRFSGSGSGQDFTLTISSLQPEDFAIYYCLQYDDFPYTFGQGTKLEIKR
B6: JB94H3L3 (antibody, human IgG1, kappa, V domains shown)
VH: B5 VH with V5Q, V20L, M48I, V68A
VL: B5 VL with A43S, F71Y

target: cynomolgus CD73 on the cell surface (293T/17-cynoCD73 cells) (cynomolgus (Macaca fascicularis)); assay: flow cytometry on 293T/17 cells expressing cynoCD73, APC-labelled goat anti-human antibody, MFI

| Binder | binding |
| --- | --- |
| B1 | binds |
| B2 | binds |
| B3 | binds |
| B4 | binds |
| B5 | binds |
| B6 | binds |

From patent US20220064322A1
